Measurements taken from patent publication US11056705B2, “Organic anolyte materials for flow batteries” (THE REGENTS OF THE UNIVERSITY OF MICHIGAN, priority 2015, dated 2021).
Some of these results come from one statement about several compounds together.

Assay: Cyclic voltammetry (CV) of anolyte candidates in a three-electrode cell
Format: physicochemical
Conditions: MeCN with NBu4BF4 (TBABF4) supporting electrolyte; versus Ag/Ag+
Procedure: The electrochemistry of a series of heteroarenes was evaluated by cyclic voltammetry (CV). Electrochemical analysis was performed in the absence of oxygen and moisture. The experiments were conducted in a three-electrode cell comprised of a glassy carbon working electrode, a platinum counter electrode, and a Ag/Ag^+ reference electrode. The CV of each anolyte candidate was initially conducted in acetonitrile (MeCN) with tetrabutylammonium tetrafluoroborate (TBABF4) as the supporting electrolyte.
The reversibility of each redox couple in the CV was estimated by calculating the ratio of the diffusion-limited peak-heights of the cathodic (ipc) and anodic (ipa) currents (FIG. 2). The current peak heights were determined from the second CV cycle, and are all reported following deconvolution of the current-potential plot. […] In addition, […] conducted at slow scan rates allows for an extended lifetime of the reduced species (FIG. 2, 10 mV/s scan). With longer lifetimes, the concentration of charged anolytes that are susceptible to irreversible chemical or electrochemical reactions will decrease, and lower current responses upon re-oxidation will be observed. As a result, redox couples measured at slow scan rates generally occur with current peak-height ratios that deviate from unity to a greater extent than couples measured at faster scan rates. […]

COC(=O)c1cccnc1 [Compound 2a, methyl nicotinate]
reduction potential: lower than −2 V
